Test results as given in PMC12715260.

The chains behind the UniProt entries cited, without tags or fusion partners.
UniProt P63158: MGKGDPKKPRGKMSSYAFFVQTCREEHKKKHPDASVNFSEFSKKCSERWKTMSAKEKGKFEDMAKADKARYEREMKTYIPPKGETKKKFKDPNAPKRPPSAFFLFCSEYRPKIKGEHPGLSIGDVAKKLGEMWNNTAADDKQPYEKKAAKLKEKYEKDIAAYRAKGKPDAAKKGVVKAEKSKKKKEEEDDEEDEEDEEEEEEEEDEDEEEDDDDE

Biological target: T1, solute carrier family 7 member 11 (SLC7A11), endogenous in MDSCs (mouse (endogenous in bone marrow-derived MDSCs of C57BL/6J mice)) (UniProt Q9WTR6)
T1 sequence: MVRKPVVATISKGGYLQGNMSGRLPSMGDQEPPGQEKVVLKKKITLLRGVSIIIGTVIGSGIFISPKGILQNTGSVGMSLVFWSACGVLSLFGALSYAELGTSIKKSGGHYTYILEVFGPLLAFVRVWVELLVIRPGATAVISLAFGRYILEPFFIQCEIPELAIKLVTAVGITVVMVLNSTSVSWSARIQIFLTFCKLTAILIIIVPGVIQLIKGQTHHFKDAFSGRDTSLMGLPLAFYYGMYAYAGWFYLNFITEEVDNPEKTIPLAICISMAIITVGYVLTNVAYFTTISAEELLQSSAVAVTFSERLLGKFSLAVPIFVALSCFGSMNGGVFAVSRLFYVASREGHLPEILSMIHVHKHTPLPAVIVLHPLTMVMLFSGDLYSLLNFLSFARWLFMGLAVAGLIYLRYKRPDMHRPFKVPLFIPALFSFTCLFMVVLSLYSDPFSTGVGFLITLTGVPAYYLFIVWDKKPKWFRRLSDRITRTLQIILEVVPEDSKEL
Assay: affinity purification with mass spectrometry; IP with anti-SLC7A11 (Abcam ab175186; Capturem IP & Co-IP Kit) from MDSCs treated with heat-inactivated A. fumigatus (MOI = 2) for 24 h, unstimulated MDSCs as control; SDS-PAGE gel slices, LC-MS/MS

**Q.** “High Mobility Group Box 1 (HMGB1), endogenous in MDSCs (from UniProt P63158 1-215)” was tested. Which binding did it give?
**A.** binds

Results are given in words; binding and its absence hold for the method and conditions named. In cells and extracts the contact can be indirect. Here binding means that the protein was enriched with, or labelled near, the bait; the list need not be complete.
